Drawing on article PMC7872032, this text covers binding for one substance.

These are yes or no findings as the source states them, for the method shown. In cells and extracts the contact can be indirect. Binding calls can cover weak binding; strength is not graded here. Tags and fused reporters may be left off the sequences shown.

The target of this assay is T1, Flag-Pig-IRF3 (porcine) (UniProt Q764M6).
T1 sequence: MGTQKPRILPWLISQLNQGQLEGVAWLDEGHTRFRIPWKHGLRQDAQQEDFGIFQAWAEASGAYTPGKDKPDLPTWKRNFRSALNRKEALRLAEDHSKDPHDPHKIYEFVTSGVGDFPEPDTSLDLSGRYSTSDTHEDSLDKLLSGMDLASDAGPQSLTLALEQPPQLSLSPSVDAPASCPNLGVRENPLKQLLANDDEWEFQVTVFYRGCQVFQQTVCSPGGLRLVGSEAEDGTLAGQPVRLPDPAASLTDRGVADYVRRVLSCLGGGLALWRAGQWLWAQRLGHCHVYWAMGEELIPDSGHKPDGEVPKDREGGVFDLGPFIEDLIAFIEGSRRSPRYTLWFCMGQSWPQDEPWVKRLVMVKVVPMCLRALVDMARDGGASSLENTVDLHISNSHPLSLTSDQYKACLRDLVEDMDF
Put plainly: co-IP; ST-EGFP-APPV-N^pro cells transfected with pCAGGS-Flag-Pig-IRF3 for 24 h (pCAGGS-Flag as negative control); lysis buffer 20 mM Tris-HCl, 300 mM NaCl, 2.5 mM MgCl2, 10% glycerol, 0.1% Nonidet P40; magnetic beads, 4 h at 4°C; western blot. (In general: Immunoblotting shows a protein as a band on a membrane.)

As to “EGFP-APPV-N^pro (atypical porcine pestivirus (APPV))”, the binding result was “binds”.
